The source of these data is article PMC6680207, “ZmpTAC12 binds single‐stranded nucleic acids and is essential for accumulation of the plastid‐encoded polymerase complex in maize”.

This data set addresses T1, rMBP-pTAC12 (ZmpTAC12) (Zea mays) (UniProt B4FZ81).
T1 sequence (looked up): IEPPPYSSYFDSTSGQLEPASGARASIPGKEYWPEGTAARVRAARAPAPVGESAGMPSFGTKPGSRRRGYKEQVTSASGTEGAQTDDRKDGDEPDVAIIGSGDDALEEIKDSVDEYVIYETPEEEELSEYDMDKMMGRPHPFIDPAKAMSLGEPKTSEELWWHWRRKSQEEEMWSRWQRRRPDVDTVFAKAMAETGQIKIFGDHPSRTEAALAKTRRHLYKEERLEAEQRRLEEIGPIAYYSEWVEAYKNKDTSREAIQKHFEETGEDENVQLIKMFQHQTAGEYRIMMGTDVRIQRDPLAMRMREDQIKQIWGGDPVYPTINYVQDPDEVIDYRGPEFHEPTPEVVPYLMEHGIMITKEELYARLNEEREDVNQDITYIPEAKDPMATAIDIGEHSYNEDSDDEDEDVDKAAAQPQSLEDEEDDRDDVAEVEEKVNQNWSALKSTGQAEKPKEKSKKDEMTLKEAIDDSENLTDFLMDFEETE
Put plainly: EMSA. Particulars: c. 100 pM probe, 1 ug/ul heparin (ssRNA assays), c. 100 pM radiolabeled 50mer, recombinant protein, residues 72-555, protein details: N-terminal MBP fusion. (A gel shift assay detects complexes by their altered migration in electrophoresis.)

Setting [1] is: 1 ug/ul heparin, label: radiolabeled, letters put together from the description.
The mark [2] stands for this setting: label: 5' end radiolabel (T4 PNK), single-stranded DNA.

For at least one entry, the source does not settle the construct or the ends of the probe. At least one verdict rests on a figure or table, not on a statement of the authors. Protein sequences can lack the tags named with them.

Regarding “GGCAGAAUAACCAAUGUCCGUUAGGCACCUAAUCCUUAUGUCAUAAUAGAUC [psaAB-231 ssRNA]”, under setting [1], the binding result is listed as “binds”. “TAATAGATCCGAACACTTGCCTCGGATTGACTTCAATATATAATTGCTCC [psaAB-190 ssDNA]”: under setting [2], the binding result is given as “binds”. Same read-out and setting: the value for “CAGAATAACCAATGTCCGTTAGGCACCTAATCCTTATGTCATAATAGATC [psaAB-231 ssDNA]” was “binds”. As for “GGUAAUAGAUCCGAACACUUGCCUCGGAUUGACUUCAAUAUAUAAUUGCUCC [psaAB-190 ssRNA]”, the binding result under setting [1] was “binds”.
